Counter-ions that a name gives are not always drawn. At least one structure is not confirmed: it was looked up by name or label, or the drawing left a doubt. Some compounds share one range, which may span the group rather than tell each member.
Legend:
lichen planopilaris = conditions: systemic administration; cited from earlier work
keratosis pilaris (KP) = assay: Topical treatment of keratosis pilaris (KP) in patients, severity grading; format: in vivo, human; conditions: formulation similar to that of Example 1, glitazone substituted for pioglitazone
Text: Prior to treatment, the severity of the KP condition was graded. […]

Compound | efficacy in the treatment of lichen planopilaris (lichen planopilaris) | results of Examples 2 and 3 (KP treatment) repeated with another glitazone formulation (keratosis pilaris (KP))
CCc1ccc(CCOc2ccc(CC3SC(=O)NC3=O)cc2)nc1 (racemic) [pioglitazone, [(±)-5-[[4-[2-(5-ethyl-2-pyridinyl)ethoxy]phenyl]methyl]-2,4-] thiazolidinedione monohydrochloride] | effective | 
CC1(COc2ccc(CC3SC(=O)NC3=O)cc2)CCCCC1 (stereo not shown) [ciglitazone] |  | Results similar to those obtained in Examples 2 to 4 using pioglitazone
CN(CCOc1ccc(CC2SC(=O)NC2=O)cc1)c1ccccn1 (stereo not shown) [rosiglitazone] |  | Results similar to those obtained in Examples 2 to 4 using pioglitazone
Cc1c(C)c2c(c(C)c1O)CCC(C)(COc1ccc(CC3SC(=O)NC3=O)cc1)O2 (stereo not shown) [troglitazone] |  | Results similar to those obtained in Examples 2 to 4 using pioglitazone
